Experimental data published in PubChem BioAssay AID590 (National Center for Advancing Translational Sciences (NCATS), 2007).
About 6,500 (11%) of roughly 59,000 compounds were called active. The inconclusive results got no clear call from the source; some entries with a clear call stand among them for comparison. No stated cut-off is given here; in the data, active means max dye-equivalent concentration above about 10 nM; inconclusive means mostly about 1.1 nM to 9.6 nM; inactive means weaker than that.

test: qHTS Assay for Spectroscopic Profiling in A350 Spectral Region; conditions: Compound autofluorescence, 340/450 nm, Alexa 350 dye-equivalents; active compounds read high
Description: NIH Molecular Libraries Screening Centers Network [MLSCN]
NIH Chemical Genomics Center [NCGC]
Occasionally, the artifactual effect may originate from the compounds own spectral or other biophysical properties which generally tend to track its assay concentration. Pre-screening/profiling the library with respect to the compounds spectral properties should help one exclude false positives early on. While the most informative fluorescent profiling data set is obtained by performing a full excitation and emission scan of each well by using a monochromator-based plate reader, such an approach is practical only on a very limited scale as scanning each well requires long time. An alternative approach, applied here, is to perform plate reader scans using selected excitation and emission wavelength pairs to generate a multidimensional relational database that correlates compound concentration and the respective relative fluorescence intensity at a given wavelength set. A standard curve of Alexa 350 (A 350) present on each plate as six-point concentration series, was used to compute a normalized fluorescence response, termed dye-equivalent concentration, for each compound at each concentration.
NCGC Assay Protocol Summary:
100 mM Tris buffer, pH 8.0
The wells in columns 1 through 4 of a Kalypsys polypropylene 1536-well compound plate were filled with standard solutions of fluorophore corresponding to the spectral region of interest. Solutions of A 350 were placed in the following wells: I1, J1: 3 mM, I2, J2: 300 uM, I3, J3: 30 uM, I4, J4: zero (DMSO), K1, L1: 3 uM, K2, L2: […], K3, L3: 300 nM, K4, L4: zero (DMSO).
Six uL of buffer were dispensed to 1536-well Greiner black plates. Compounds and dye standards (23 nL) were transferred via Kalypsys PinTool. The plates were incubated for 15 min at room temperature, and then read on ViewLux (Perkin-Elmer) High-throughput CCD imager using 340 nm and 450 nm excitation and emission filter set.
Keywords: NIH Roadmap, MLSCN, MLI, MLSMR, qHTS, NCGC, A350, A-350, Fluorescent Profiling.

Row | SMILES | max dye-equivalent concentration
1 | Cc1nc(Nc2ccc3c(c2)OCCO3)c2nnn(Cc3ccccc3Cl)c2n1 | active: 980 nM
2 | O=C(Nn1nnnc1Nc1ccccc1)C12CC3CC(CC(C3)C1)C2 | inconclusive: 1.4 nM
3 | O=C(O)c1cccc(NC(=O)c2cccc(NC(=O)C3CCCO3)c2)c1 (stereo unspecified) | inconclusive: 1.1 nM
4 | Cn1nnnc1SCC1=C(C(=O)O)N2C(=O)[C@@H](NC(=O)[C@H](O)c3ccccc3)[C@H]2SC1 | inconclusive: 2.9 nM
5 | CC(=O)c1c(C)nc(C)nc1NC(=O)C(C)C | inactive
6 | COCCn1c(=O)c(CCc2ccccc2)nc2cnc(Oc3ccc(OC)cc3)nc21 | inactive
7 | COC(=O)c1ccc2c(=O)n(CCN3CCOCC3)c(SCC(=O)c3ccccc3)nc2c1 | inconclusive: 4.3 nM
8 | COc1cccc(-c2nnc3sc(-c4ccco4)nn23)c1 | inactive
9 | O=C(O)CC(NS(=O)(=O)c1ccc(Br)cc1)c1ccco1 (stereo unspecified) | inconclusive: 3.1 nM
10 | Cn1c(=O)[nH]c(=O)c2c1nc1n2CCCN1CCc1ccccc1 | inconclusive: 1.9 nM
11 | OCCN1CCN(CCCN2c3ccccc3Sc3ccc(Cl)cc32)CC1 | inconclusive: 3.8 nM
12 | C/C(=C(/CCO)SSC[C@@H]1CCCO1)N(C=O)Cc1cnc(C)nc1N | inconclusive: 1.9 nM
13 | Cc1ccc(-n2ncc3c(N4CCN(c5ccc(F)cc5)CC4)ncnc32)c(C)c1 | inactive
14 | O=C(Nc1nsc(-c2ccccc2)n1)c1ccncc1 | inactive
15 | CCN(CC)C(=O)CSc1nnc(-c2cnccn2)n1-c1ccccc1 | inconclusive: 1.1 nM
16 | COc1ccc(-c2nc3oc4cc(OC)ccc4c(=O)c3c(=O)n2Cc2ccco2)cc1 | inconclusive: 7.2 nM
17 | CCCCc1c(O)nc(N2CCN(Cc3ccccc3)CC2)[nH]c1=O | inconclusive: 1.1 nM
18 | c1ccc2[nH]c(CN3CCN(c4ncnc5c4oc4ccccc45)CC3)nc2c1 | inactive
19 | COc1cccc(C(=O)CSc2nnc(CNS(C)(=O)=O)n2-c2ccc(C)cc2)c1 | inactive
20 | COc1cc(OC)cc(-c2cc3nc4c(c(N5CCN(c6ncccn6)CC5)n3n2)CCCC4)c1 | active: 170 nM
21 | COCCCNC(=O)Cn1nnc(-c2ccc(NC(=O)c3ccccc3OC)cc2)n1 | inconclusive: 1.9 nM
22 | Cc1csc(NC(=O)c2nc(-c3ccccc3)n(-c3ccccc3)n2)n1 | active: 14 nM
23 | COc1ccc(NC(=O)NCc2cccn2C)c(OC)c1 | inactive

Row | SMILES | max dye-equivalent concentration
24 | CCOC(=O)c1cnn2c(N)c(C#N)nnc12 | inconclusive: 1.6 nM
25 | CN1C(=O)C2CN(CCc3ccccc3)CNC2N(C)C1=O (stereo unspecified) | inconclusive: 4.5 nM
26 | Cc1cccc(NC(=O)CSc2nnc(-c3ccccc3C)o2)c1 | inactive
27 | CC(=O)Nc1cccc(Oc2cc(C#N)c(C#N)cc2N2CCCCCC2)c1 | active: 16 nM
28 | O[C@@H](c1cc(-c2ccc(Cl)cc2)nc2ccccc12)[C@@H]1CCCCN1 | inactive
29 | COc1ccc2nc(NC(=O)c3ccc(-n4nc(C)cc4C)cc3)sc2c1 | active: 150 nM
30 | CCOC(=O)C1CCCN(c2nc3ccccc3nc2C(C#N)C(=O)OC(C)COC)C1 (stereo unspecified) | active: 15 nM
31 | Cc1nnc2n(CCc3ccccc3)c(=O)c3c4c(sc3n12)CCCC4 | inconclusive: 1.7 nM
32 | Cc1cc(NC(=O)c2cc(-c3ccncc3)nc3c(C)cccc23)no1 | inconclusive: 8.9 nM
33 | COCCN(CCOC)c1ncnc2c1cnn2-c1ccc(Cl)cc1 | inactive
34 | CC1CCCN(S(=O)(=O)c2ccc(S(=O)(=O)N3CCCN(Cc4ccccc4)C3)cc2)C1 (stereo unspecified) | inconclusive: 4.4 nM
35 | O=C(COc1ccccc1)N1CCc2ccccc2C1 | inconclusive: 1.1 nM
36 | COc1ccccc1N1CCN(Cc2ccco2)CC1 | inactive
37 | c1ccc2c(c1)[nH]c1c(N3CCSCC3)ncnc12 | inconclusive: 5.5 nM
38 | Cc1nnc(N(Cc2ccco2)C(=O)c2cccc(C#N)c2)s1 | inconclusive: 1.3 nM
39 | N#CCCNC(=O)CCN1CCOCC1 | inconclusive: 5.2 nM
40 | Cc1cccc(Nc2n[nH]c(=S)s2)c1C | inactive
41 | COc1ncc2nc(-c3ccccc3)c(=O)n(C)c2n1 | active: 18 nM
42 | CCN(CC)CCNC(=O)CS(=O)Cc1nc(-c2ccc(C)cc2)oc1C (stereo unspecified) | inactive
43 | CN(Cc1ccccc1)S(=O)(=O)c1ccc2[nH]cc(C(=O)NCC3CCCO3)c(=O)c2c1 (stereo unspecified) | inconclusive: 2.7 nM
44 | COc1ccccc1Cn1nnc2c(=O)[nH]c(C3CCN(C(=O)c4ccc(C)cc4)CC3)nc21 | inconclusive: 7.2 nM
45 | CCOc1ccc(C2C=C(c3ccc(F)cc3)Nc3ncnn32)cc1 (stereo unspecified) | active: 560 nM
46 | N#Cc1nc(-c2cccs2)oc1N1CCN(Cc2ccccc2)CC1 | active: 140 nM

Three structures out of the list, sorted by length of the SMILES, smallest number first.
Row | SMILES | max dye-equivalent concentration
35 | O=C(COc1ccccc1)N1CCc2ccccc2C1 | inconclusive: 1.1 nM
33 | COCCN(CCOC)c1ncnc2c1cnn2-c1ccc(Cl)cc1 | inactive
44 | COc1ccccc1Cn1nnc2c(=O)[nH]c(C3CCN(C(=O)c4ccc(C)cc4)CC3)nc21 | inconclusive: 7.2 nM
